Test results published in publication PMC8185148.
These are yes or no findings as the source states them, for the method shown. In cells and extracts the contact can be indirect. Here binding means that the protein was enriched with, or labelled near, the bait; the list need not be complete.

Molecular target: GFP-fused PCV3 Cap (capsid protein) (porcine circovirus type 3 (PCV3))
Experiment: affinity purification with mass spectrometry; PK15 cells transfected with GFP-Cap or GFP; lysed in NP-40 buffer (10 mM Tris pH 7.5, 150 mM NaCl, 0.5% NP-40, 0.5 mM EDTA); anti-GFP mAb conjugated beads (GFP-trap); SDS-PAGE, silver stain, differential bands excised for LC-MS/MS

Binder	binding
MX1 (protein, UniProt P27594 1-663) MVYSSCESKEPDSVSASNHLLLNGNDELVEKSHKTGPENNLYSQYEEKVRPCIDLIDSLRALGVEQDLALPAIAVIGDQSSGKSSVLEALSGVALPRGSGIVTRCPLVLKLKKLVNEEDEWKGKVSYRDSEIELSDASQVEKEVSAAQIAIAGEGVGISHELISLEVSSPHVPDLTLIDLPGITRVAVGNQPYDIEYQIKSLIKKYICKQETINLVVVPCNVDIATTEALRMAQEVDPEGDRTIGILTKPDLVDKGTEDKIVDVARNLVFHLKKGYMIVKCRGQQDIQEQLSLAKALQKEQAFFENHAHFRDLLEEGRATIPCLAERLTSELIMHICKTLPLLENQIKESHQKITEELQKYGSDIPEDESGKMFFLIDKIDAFNSDITALIQGEELVVEYECRLFTKMRNEFCRWSAVVEKNFKNGYDAICKQIQLFENQYRGRELPGFVNYKTFETIIKKQVSVLEEPAVDMLHTVTDLVRLAFTDVSETNFNEFFNLHRTAKSKIEDIKLEQEKEAETSIRLHFQMEQIVYCQDQVYRGALQKVREKEAEEEKNRKSNQYFLSSPAPSSDPSIAEIFQHLIAYHQEVGKRISSHIPLIIQFFILRTFGQQLQKSMLQLLQNKDQYDWLLRERSDTSDKRKFLKERLMRLTQARRRLAKFPG	binds
heterogeneous nuclear ribonucleoprotein hnRNP F (protein, UniProt F1RG16 1-414) MMLGPEGGEGFVVKLRGLPWSCSVEDVQNFLSDCTIRDGAAGVHFIYTREGRQSGEAFVELESEDDVKMALKKDRESMGHRYIEVFKSHRTEMDWVLKHSGPNSADTANDGFVRLRGLPFGCTKEEIVQFFSGLEIVPNGITLPVDPEGKITGEAFVQFASQELAEKALGKHKERIGHRYIEVFKSSQEEVRSYSDPPLKFMSVQRPGPYDRPGTARRYIGIVKQAGLERMRSGAYSAGYGGYEEYSGLSDGYGFTTDLFGRDLSYCLSGMYDHRYGDGEFTVQSTTGHCVHMRGLPYKATENDIYNFFSPLNPVRVHIEIGPDGRVTGEADVEFATHDEAVAAMSKDRANMQHRYIELFLNSTTGASNGAYSSQMMQGMGVSTQSTYSGLESQSVSGCYGAGYGGQNSMGGYD	binds
